Assay results reported in the supplement of paper PMC12067093, “Discovery and optimisation of a covalent ligand for TRIM25 and its application to targeted protein ubiquitination” (Chemical Science, 2025).
This is one part of the list.

Chains of the proteins cited; added tags and fusions are not shown. Lines headed by an entry give the natural chain unless they say otherwise; changes in a name come on top.
UniProt P19838: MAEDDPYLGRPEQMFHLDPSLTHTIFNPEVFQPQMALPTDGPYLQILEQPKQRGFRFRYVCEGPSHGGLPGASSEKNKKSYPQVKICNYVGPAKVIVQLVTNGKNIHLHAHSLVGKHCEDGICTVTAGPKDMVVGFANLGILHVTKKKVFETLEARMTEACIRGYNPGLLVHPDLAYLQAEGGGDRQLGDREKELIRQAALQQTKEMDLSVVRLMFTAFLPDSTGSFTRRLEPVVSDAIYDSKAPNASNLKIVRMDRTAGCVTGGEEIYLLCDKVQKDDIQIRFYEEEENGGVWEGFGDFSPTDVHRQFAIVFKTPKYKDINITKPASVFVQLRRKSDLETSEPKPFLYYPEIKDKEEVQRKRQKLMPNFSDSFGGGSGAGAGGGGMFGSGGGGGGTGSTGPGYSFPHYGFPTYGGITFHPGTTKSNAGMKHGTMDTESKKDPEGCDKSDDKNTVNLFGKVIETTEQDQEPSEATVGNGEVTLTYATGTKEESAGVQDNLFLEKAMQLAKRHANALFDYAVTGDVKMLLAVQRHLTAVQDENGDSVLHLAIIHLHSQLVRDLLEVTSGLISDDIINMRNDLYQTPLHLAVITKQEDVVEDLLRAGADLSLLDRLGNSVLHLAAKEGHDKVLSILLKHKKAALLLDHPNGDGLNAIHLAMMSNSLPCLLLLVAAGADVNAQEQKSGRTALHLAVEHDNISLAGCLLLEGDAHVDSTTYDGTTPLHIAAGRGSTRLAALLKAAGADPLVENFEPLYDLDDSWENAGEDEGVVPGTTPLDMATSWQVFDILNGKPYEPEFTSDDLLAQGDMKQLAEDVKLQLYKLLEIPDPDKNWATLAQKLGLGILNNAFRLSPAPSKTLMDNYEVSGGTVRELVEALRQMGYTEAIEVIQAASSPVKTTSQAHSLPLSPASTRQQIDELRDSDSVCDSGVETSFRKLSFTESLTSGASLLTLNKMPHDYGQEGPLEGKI
UniProt P55160: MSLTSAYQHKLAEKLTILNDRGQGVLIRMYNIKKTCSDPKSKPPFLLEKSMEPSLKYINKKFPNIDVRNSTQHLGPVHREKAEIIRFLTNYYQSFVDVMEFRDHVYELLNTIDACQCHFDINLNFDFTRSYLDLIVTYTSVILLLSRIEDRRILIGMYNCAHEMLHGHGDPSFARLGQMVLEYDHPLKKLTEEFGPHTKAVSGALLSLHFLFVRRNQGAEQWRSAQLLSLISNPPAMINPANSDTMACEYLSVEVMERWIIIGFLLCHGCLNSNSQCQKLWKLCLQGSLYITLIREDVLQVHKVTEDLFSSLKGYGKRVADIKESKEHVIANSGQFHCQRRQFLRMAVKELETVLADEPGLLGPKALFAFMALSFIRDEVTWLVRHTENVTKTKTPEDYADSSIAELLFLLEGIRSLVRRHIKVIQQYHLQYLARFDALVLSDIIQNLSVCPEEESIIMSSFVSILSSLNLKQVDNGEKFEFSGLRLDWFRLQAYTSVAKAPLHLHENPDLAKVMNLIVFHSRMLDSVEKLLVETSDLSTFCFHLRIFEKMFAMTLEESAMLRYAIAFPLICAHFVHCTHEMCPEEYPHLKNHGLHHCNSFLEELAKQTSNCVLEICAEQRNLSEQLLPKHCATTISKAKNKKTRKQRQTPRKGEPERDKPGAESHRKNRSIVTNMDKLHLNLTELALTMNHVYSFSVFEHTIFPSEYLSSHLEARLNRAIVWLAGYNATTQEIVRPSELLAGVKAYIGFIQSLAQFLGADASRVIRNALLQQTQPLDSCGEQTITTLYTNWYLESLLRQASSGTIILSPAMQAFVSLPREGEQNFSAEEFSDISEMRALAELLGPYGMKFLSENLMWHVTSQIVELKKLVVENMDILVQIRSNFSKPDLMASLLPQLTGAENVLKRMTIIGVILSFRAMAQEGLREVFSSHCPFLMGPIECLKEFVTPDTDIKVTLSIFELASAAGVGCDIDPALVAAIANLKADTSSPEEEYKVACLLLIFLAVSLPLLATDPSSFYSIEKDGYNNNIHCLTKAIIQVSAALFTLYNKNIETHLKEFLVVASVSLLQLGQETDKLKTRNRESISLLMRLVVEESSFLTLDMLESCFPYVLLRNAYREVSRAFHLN
UniProt Q9Y618, whole entry, looked up: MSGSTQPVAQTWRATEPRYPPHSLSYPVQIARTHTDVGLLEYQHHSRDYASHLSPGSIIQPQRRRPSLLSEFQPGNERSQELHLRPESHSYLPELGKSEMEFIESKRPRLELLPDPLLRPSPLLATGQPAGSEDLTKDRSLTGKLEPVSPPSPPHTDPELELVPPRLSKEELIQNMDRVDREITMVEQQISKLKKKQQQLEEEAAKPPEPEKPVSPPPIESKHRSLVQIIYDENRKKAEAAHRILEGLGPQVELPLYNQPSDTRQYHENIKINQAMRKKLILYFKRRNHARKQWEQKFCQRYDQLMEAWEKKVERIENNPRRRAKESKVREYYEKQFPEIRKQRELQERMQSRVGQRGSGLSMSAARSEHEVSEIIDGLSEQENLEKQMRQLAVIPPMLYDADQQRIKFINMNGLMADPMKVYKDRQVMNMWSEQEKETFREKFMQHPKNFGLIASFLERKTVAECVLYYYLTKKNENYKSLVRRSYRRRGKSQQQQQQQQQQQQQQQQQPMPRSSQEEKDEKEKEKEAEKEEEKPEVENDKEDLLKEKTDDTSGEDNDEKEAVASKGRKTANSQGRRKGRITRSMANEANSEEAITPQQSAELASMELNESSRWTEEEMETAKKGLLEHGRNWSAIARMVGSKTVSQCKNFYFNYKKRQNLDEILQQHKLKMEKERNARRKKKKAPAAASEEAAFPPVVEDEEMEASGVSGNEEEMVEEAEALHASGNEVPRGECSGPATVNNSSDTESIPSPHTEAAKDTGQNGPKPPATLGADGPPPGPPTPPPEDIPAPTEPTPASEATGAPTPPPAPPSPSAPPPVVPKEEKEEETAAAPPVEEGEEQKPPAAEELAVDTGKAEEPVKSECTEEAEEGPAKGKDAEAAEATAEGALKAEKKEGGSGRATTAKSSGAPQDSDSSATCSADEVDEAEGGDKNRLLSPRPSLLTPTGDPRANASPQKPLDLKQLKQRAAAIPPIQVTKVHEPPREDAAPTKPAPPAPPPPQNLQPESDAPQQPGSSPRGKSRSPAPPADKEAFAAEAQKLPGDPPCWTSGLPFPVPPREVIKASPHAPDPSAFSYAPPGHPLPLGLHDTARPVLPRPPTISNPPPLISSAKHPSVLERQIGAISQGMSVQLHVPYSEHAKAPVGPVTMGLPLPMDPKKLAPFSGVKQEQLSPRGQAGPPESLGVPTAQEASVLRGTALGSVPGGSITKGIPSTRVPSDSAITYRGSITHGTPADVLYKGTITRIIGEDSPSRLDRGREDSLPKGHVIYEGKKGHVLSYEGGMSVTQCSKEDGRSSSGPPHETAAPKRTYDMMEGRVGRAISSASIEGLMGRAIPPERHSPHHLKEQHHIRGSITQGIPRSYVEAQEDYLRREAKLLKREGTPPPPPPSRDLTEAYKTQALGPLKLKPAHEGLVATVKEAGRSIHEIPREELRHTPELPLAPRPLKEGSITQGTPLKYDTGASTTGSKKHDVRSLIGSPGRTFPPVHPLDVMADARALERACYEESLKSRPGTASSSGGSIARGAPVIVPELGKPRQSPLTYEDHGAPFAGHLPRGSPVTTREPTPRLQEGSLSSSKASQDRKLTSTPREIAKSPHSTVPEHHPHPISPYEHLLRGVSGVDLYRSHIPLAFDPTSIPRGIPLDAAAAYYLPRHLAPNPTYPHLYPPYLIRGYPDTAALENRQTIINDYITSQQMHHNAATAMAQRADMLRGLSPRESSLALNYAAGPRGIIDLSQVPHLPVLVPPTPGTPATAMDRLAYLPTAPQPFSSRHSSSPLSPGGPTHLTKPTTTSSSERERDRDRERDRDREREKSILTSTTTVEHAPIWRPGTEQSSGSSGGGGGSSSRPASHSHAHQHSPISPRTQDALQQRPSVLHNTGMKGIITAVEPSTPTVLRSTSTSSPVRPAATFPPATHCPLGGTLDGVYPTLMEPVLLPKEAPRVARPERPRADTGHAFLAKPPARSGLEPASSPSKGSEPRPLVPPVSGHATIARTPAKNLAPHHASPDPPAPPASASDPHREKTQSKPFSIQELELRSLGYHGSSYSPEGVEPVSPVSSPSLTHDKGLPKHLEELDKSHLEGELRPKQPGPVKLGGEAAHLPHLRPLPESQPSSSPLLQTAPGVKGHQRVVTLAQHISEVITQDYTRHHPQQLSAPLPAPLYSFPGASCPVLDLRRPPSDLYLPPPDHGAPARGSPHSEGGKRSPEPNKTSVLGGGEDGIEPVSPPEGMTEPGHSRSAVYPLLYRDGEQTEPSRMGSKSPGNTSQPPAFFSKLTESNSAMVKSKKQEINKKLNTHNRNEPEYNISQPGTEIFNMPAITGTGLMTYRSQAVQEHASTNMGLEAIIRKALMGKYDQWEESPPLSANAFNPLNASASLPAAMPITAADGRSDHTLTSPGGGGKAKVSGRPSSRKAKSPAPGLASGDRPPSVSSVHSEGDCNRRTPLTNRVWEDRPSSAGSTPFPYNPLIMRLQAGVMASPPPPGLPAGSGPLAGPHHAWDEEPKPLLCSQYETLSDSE
UniProt Q16718, whole entry, looked up: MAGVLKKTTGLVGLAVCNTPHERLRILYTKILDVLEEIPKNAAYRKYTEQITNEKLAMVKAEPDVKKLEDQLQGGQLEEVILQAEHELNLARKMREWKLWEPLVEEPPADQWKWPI
UniProt Q9NQR4: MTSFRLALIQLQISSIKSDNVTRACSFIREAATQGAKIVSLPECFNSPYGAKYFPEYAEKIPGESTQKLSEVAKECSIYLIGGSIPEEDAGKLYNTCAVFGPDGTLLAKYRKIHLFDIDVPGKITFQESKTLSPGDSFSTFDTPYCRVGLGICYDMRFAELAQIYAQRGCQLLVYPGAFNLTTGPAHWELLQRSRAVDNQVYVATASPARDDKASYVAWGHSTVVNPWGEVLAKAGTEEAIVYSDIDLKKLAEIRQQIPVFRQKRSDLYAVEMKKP
UniProt O43920, whole entry, looked up: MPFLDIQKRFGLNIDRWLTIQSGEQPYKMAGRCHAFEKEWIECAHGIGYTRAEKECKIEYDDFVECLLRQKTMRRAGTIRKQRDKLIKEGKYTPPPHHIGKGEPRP
UniProt O95299, whole entry, looked up: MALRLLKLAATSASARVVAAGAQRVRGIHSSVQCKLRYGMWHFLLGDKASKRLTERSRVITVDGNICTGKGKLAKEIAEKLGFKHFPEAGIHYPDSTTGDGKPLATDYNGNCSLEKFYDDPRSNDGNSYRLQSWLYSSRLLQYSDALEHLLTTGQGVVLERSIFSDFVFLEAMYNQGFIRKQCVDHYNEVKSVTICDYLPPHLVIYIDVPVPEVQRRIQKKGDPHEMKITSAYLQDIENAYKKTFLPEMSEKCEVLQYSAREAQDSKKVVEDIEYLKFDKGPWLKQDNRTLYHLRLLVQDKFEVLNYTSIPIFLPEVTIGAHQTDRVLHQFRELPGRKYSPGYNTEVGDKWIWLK
UniProt Q8IXH7, whole entry, looked up: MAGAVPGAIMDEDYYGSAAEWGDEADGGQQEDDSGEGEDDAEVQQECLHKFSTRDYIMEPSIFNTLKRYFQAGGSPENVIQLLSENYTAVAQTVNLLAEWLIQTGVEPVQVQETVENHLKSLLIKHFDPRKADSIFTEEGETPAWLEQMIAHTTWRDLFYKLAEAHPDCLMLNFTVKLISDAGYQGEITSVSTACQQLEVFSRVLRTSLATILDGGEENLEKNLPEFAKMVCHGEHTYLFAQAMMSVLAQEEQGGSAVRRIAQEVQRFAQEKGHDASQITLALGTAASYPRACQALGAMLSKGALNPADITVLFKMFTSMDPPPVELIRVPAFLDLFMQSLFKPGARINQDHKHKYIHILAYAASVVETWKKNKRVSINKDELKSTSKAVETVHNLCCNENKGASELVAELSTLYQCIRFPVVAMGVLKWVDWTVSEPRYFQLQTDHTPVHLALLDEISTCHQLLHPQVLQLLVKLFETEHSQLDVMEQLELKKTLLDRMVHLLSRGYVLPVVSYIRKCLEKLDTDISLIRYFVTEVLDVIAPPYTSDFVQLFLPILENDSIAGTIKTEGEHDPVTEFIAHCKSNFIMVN
UniProt Q15653: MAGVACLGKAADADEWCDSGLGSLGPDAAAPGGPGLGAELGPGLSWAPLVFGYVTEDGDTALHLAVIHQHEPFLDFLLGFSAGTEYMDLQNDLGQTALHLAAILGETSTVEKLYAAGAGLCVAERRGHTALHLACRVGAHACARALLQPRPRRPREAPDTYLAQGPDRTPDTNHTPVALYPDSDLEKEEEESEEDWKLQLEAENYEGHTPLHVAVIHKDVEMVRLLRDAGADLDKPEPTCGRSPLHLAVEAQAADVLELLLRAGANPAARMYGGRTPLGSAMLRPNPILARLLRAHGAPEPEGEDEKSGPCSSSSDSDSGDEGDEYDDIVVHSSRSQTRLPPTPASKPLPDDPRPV
UniProt Q9Y221: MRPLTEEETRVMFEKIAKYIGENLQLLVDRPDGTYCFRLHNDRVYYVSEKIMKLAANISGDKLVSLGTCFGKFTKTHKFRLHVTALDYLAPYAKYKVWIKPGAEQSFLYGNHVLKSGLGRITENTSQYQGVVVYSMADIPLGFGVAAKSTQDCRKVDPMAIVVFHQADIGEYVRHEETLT

Compound: CC1Cc2ccccc2N1C(=O)C1CCCN(C1)C(=O)CCl (mixture of isomers) [TRIM25 ligand 11 (diastereomer mixture)]
Test: probe-labelled cysteine peptide fold change vs DMSO (competition) (log2 fold change); higher = less target engagement (more negative = stronger competition)
Settings: THP-1, incubation time: 4 h
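Further: competitive chemoproteomic profiling in live THP-1 cells with an iodoacetamide desthiobiotin (IA-DTB) probe, comparing probe-labelled peptide intensities in compound-treated cells against DMSO-treated controls.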

Row | Target | probe-labelled cysteine peptide fold change (10 µM) | probe-labelled cysteine peptide fold change (50 µM)
1 | NFKB1_P19838_61_YVCEGPSHGGLPGASSEK (UniProt P19838) | -0.0412 | -0.198
2 | NCKAP1L_P55160_338_EHVIANSGQFHCQR (UniProt P55160) | 0.0855 | -0.139
3 | NDUFA8_P51970_66_CALDFFR (UniProt P51970) | -0.0321 | 0.114
4 | NCOR2_Q9Y618_1289_GHVLSYEGGMSVTQCSK (UniProt Q9Y618) | -0.0557 | -0.193
5 | NCKIPSD_Q9NZQ3_138_QPNGVCR (UniProt Q9NZQ3) | -0.0933 | -0.32
6 | NIFK_Q9BYG3_237_TVDSQGPTPVCTPTFLER (UniProt Q9BYG3) | 0.0598 | -0.143
7 | NFIB_O00712_120_RIDCLR (UniProt O00712) | -0.0808 | -0.232
8 | NFXL1_Q6ZNB6_713_SRPLGCLHPCILR (UniProt Q6ZNB6) |  | 0.0312
9 | NDUFA5_Q16718_17_TTGLVGLAVCNTPHER (UniProt Q16718) | -0.202 | -0.304
10 | NIT1_Q86X76_251+259_AIETQCYVVAAAQCGR (UniProt Q86X76) | 0.553 | 0.575
11 | NIT2_Q9NQR4_146_TLSPGDSFSTFDTPYCR (UniProt Q9NQR4) | 0.263 | 0.182
12 | NCLN_Q969V3_84_RCVLMR (UniProt Q969V3) | -0.0469 | -0.0231
13 | NF1_P21359_1016_LCQLVEVMMAR (UniProt P21359) | 0.0549 | 0.181
14 | NDUFB7_P17568_90_HDWDYCEHR (UniProt P17568) | 0.161 | 0.191
15 | NELFE_P18615_297_NCAFVTYEK (UniProt P18615) | -0.024 | -0.0271
16 | NCOR1_O75376_2322_REEGDPSPHSGGVCKPK (UniProt O75376) | -0.0371 | -0.16
17 | NDUFV1_P49821_238+255_LKPPFPADVGVFGCPTTVANVETVAVSPTICR (UniProt P49821) | -0.0727 | 0.0828
18 | NFAT5_O94916_270_KSPMLCGQYPVK (UniProt O94916) | -0.151 | -0.216
19 | NFX1_Q12986_832_SNIPCHLVDISCGLPCSATLPCGMHK (UniProt Q12986) | -0.0383 | 0.0383
20 | NIN_Q8N4C6_695_EAHHEATCR (UniProt Q8N4C6) | -0.0249 | 0.0749
21 | NCKAP1L_P55160_36_TCSDPK (UniProt P55160) | 0.158 | 0.0267
22 | NCOA7_Q8NI08_55_CNIAVEEEYMTDEK (UniProt Q8NI08) | 0.0429 | -0.0643

Row | Target | probe-labelled cysteine peptide fold change (10 µM) | probe-labelled cysteine peptide fold change (50 µM)
23 | NFX1_Q12986_444_NEIPHSCGEVCR (UniProt Q12986) | 0.00232 | 0.118
24 | NIT1_Q86X76_203_IGLAVCYDMR (UniProt Q86X76) | 0.169 | -0.227
25 | NDUFA9_Q16795_86_CDKYDIMHLRPMGDLGQLLFLEWDAR (UniProt Q16795) | -0.201 | -0.102
26 | NEU1_Q99519_287_NQNNYHCHCR (UniProt Q99519) | 0.196 | 0.174
27 | NFATC2IP_Q8NCF5_332_LGVADIIDCVVLTSSPEATETSQQLQLR (UniProt Q8NCF5) | 0.0113 | 0.119
28 | NDC80_O14777_100_QLCEFLTENGYAHNVSMK (UniProt O14777) | -0.0826 | -0.0173
29 | NDUFS5_O43920_43_EWIECAHGIGYTR (UniProt O43920) | 0.0135 | -0.0188
30 | NELFA_Q9H3P2_44_LCFHGLSSAVK (UniProt Q9H3P2) | -0.091 | 0.126
31 | NCOA5_Q9HCD5_200_FDAERPVDCSVIVVNK (UniProt Q9HCD5) | -0.00264 | 0.0985
32 | NIPBL_Q6KC79_1841_FVLCRPQLAEQYYDMLIER (UniProt Q6KC79) | 0.0142 | 0.22
33 | NFIX_Q14938_6_MYSPYCLTQDEFHPFIEALLPHVR (UniProt Q14938) | 0.072 | -0.567
34 | NELFB_Q8WX92_115_MPSLQPVVMCVMK (UniProt Q8WX92) | -0.277 | -0.284
35 | NFAT5_O94916_347_VKPHGFYQACR (UniProt O94916) | -0.0497 | -0.0186
36 | NID1_P14543_685_EGSPDALQNPCYIGTHGCDTNAACRPGPR (UniProt P14543) | -0.13 | 0.291
37 | NFKB2_Q00653_432_TPQCEPQAPEMLQR (UniProt Q00653) | -0.124 | -0.194
38 | NFX1_Q12986_295_STCDSENLAVINK (UniProt Q12986) | 0.0624 | -0.0282
39 | NCOR1_O75376_987_QEQIDLECR (UniProt O75376) | -0.022 | 0.0386
40 | NEK7_Q8TDX7_146_YFVQLCSALEHMHSR (UniProt Q8TDX7) | -0.148 | 0.00438
41 | NDUFA10_O95299_253_CEVLQYSAR (UniProt O95299) | -0.0463 | -0.00882
42 | NDUFS1_P28331_554_VLFLLGADGGCITR (UniProt P28331) | -0.0537 | 0.0876
43 | NELFCD_Q8IXH7_582_TEGEHDPVTEFIAHCK (UniProt Q8IXH7) | -0.00537 | 0.1
44 | NDUFS1_P28331_78_MCLVEIEK (UniProt P28331) | -0.237 | 0.0677

Row | Target | probe-labelled cysteine peptide fold change (10 µM) | probe-labelled cysteine peptide fold change (50 µM)
45 | NDRG1_Q92597_289_MADCGGLPQISQPAK (UniProt Q92597) | -0.006 | -0.0335
46 | NDUFS5_O43920_33_CHAFEK (UniProt O43920) | -0.112 | -0.0478
47 | NIT1_Q86X76_285+292_CSEGPGLCLAR (UniProt Q86X76) | -0.0588 | -0.0713
48 | NELFCD_Q8IXH7_417_GASELVAELSTLYQCIR (UniProt Q8IXH7) | -0.0179 | -0.0508
49 | NCOR2_Q9Y618_1503_ACYEESLK (UniProt Q9Y618) | -0.00579 | 0.0659
50 | NFKBIB_Q15653_240_DAGADLDKPEPTCGR (UniProt Q15653) | -0.0754 | -0.183
51 | NIP7_Q9Y221_36_YIGENLQLLVDRPDGTYCFR (UniProt Q9Y221) | 0.178 | 0.26
52 | NEK9_Q8TD19_288_AMEVDSSQYSLELIQMVHSCLDQDPEQRPTADELLDRPLLR (UniProt Q8TD19) | 0.241 | 0.209
53 | NEDD4_P46934-4_4_ATCAVEVFGLLEDEENSR (UniProt P46934) | -0.669 | -0.509
54 | NDUFS8_O00217_121_LCEAICPAQAITIEAEPR (UniProt O00217) | 0.073 | 0.261
55 | NCOA5_Q9HCD5_200_RFDAERPVDCSVIVVNK (UniProt Q9HCD5) | -0.00882 | -0.032
56 | NFKB1_P19838_161_MTEACIR (UniProt P19838) | -0.0373 | 0.0321
57 | NDUFA5_Q16718_17_KTTGLVGLAVCNTPHER (UniProt Q16718) | -0.288 | -0.321
58 | NIT1_Q86X76_67_TCAELVR (UniProt Q86X76) | -0.0774 | 0.172
59 | NCOA4_Q13772_244_ACNFFNNVGGNLK (UniProt Q13772) | -0.138 | 0.00789
60 | NCOR2_Q9Y618_1289_KGHVLSYEGGMSVTQCSK (UniProt Q9Y618) | 0.00374 | -0.119
61 | NDUFV1_P49821_187_NACGSGYDFDVFVVR (UniProt P49821) | 0.0197 | 0.136
62 | NFXL1_Q6ZNB6_335_CENPCHAGSCQPCPR (UniProt Q6ZNB6) | 0.197 | 0.0241
63 | NFATC3_Q12968_90_NYEGTCEIPESK (UniProt Q12968) | -0.289 | -0.185
64 | NIN_Q8N4C6_1261_LLYEDVSRENDCLQEELR (UniProt Q8N4C6) | 0.085 | -0.121
65 | NFX1_Q12986_362_YECMVCCELVR (UniProt Q12986) | 0.202 | 0.158
66 | NDUFA8_P51970_110_FDECVLDK (UniProt P51970) | -0.116 | 0.13

Row | Target | probe-labelled cysteine peptide fold change (10 µM) | probe-labelled cysteine peptide fold change (50 µM)
67 | NCKIPSD_Q9NZQ3_412_CYLEELLHILTDADPEVCKK (UniProt Q9NZQ3) | -0.188 | 0.0178
68 | NDUFB7_P17568_80_RDSFPNFLACK (UniProt P17568) | 0.0829 | 0.0455
69 | NDUFA8_P51970_36_AAAHHYGAQCDKPNK (UniProt P51970) | -0.0944 | 0.0873
70 | NEK9_Q8TD19_657_VSCGDEFTIAATDDNHIFAWGNGGNGR (UniProt Q8TD19) | 0.0815 | 0.0615
71 | NEK6_Q9HC98_157_YFVQLCSAVEHMHSR (UniProt Q9HC98) | 0.0117 | -0.0704
72 | NDUFAF6_Q330K2_236_VFLPMDICMLHGVSQEDFLR (UniProt Q330K2) | -0.0491 | -0.0128
73 | NIT2_Q9NQR4_153_VGLGICYDMR (UniProt Q9NQR4) | -0.261 | -1.18
74 | NGLY1_Q96IV0_484_ETLFIPCENEK (UniProt Q96IV0) | 0.107 | -0.023
75 | NIPBL_Q6KC79_2151_SLFTVGALCR (UniProt Q6KC79) | 0.0145 | 0.336
76 | NFX1_Q12986_684_SEDATFMCDK (UniProt Q12986) | -0.148 | -0.0603
77 | NFX1_Q12986_947+951_LECDEECSALER (UniProt Q12986) | 0.0793 | -0.0501
78 | NCKAP5L_Q9HCH0_1076_NGLVGPLQGCGKPPGKPSSEPGRR (UniProt Q9HCH0) | -0.117 | -0.14
79 | NCDN_Q9UBB6_725_MAALEQCLSEP (UniProt Q9UBB6) | 0.0752 | 0.00418
80 | NCKIPSD_Q9NZQ3_376_DLSMALPSGQVCHDQQR (UniProt Q9NZQ3) | 0.17 | 0.0042
81 | NF1_P21359_1486_RFFLDIASDCPTSDAVNHSLSFISDGNVLALHR (UniProt P21359) | -0.0766 | -0.145
82 | NELFB_Q8WX92_141_ACAVEVK (UniProt Q8WX92) | -0.0244 | 0.159
83 | NFX1_Q12986_901_EMVICSEASSTYQR (UniProt Q12986) | 0.177 | -0.0388
84 | NIPBL_Q6KC79_1066_ELPPELLAEIESTMPLCER (UniProt Q6KC79) | 0.327 | 0.319
85 | NDUFA10_O95299_183_QCVDHYNEVK (UniProt O95299) | 0.028 | 0.0116

From no. 46 up to 51, copied from above:
Row | Target | probe-labelled cysteine peptide fold change (10 µM) | probe-labelled cysteine peptide fold change (50 µM)
46 | NDUFS5_O43920_33_CHAFEK (UniProt O43920) | -0.112 | -0.0478
47 | NIT1_Q86X76_285+292_CSEGPGLCLAR (UniProt Q86X76) | -0.0588 | -0.0713
48 | NELFCD_Q8IXH7_417_GASELVAELSTLYQCIR (UniProt Q8IXH7) | -0.0179 | -0.0508
49 | NCOR2_Q9Y618_1503_ACYEESLK (UniProt Q9Y618) | -0.00579 | 0.0659
50 | NFKBIB_Q15653_240_DAGADLDKPEPTCGR (UniProt Q15653) | -0.0754 | -0.183
51 | NIP7_Q9Y221_36_YIGENLQLLVDRPDGTYCFR (UniProt Q9Y221) | 0.178 | 0.26
